# Assay results reported in article PMC9868778 (Planta Medica, 2022).
# Tests used:
# [1] = Stability of compounds in PBS, perfusion medium and placental homogenate; assay type: in vitro ADME, human; details: 360 min
# [2] = Fraction unbound in placental homogenate; assay type: in vitro ADME; details: human, placental homogenate (5-fold diluted in PBS)
structure (smiles),measurement,setting,value
CN1C(=O)CN=C(c2ccccc2)c2cc(Cl)ccc21 [diazepam],fetal-maternal concentration ratio (FM ratio),"after 360 min, antipyrine from control perfusions",0.98
same,F perfusate (% found),"human, pH 7.3",7.9%
same,stability in PBS,[1]; 4 °C and 37 °C,slightly less stable
same,stability in placental homogenate (degradation observed),"[1]; Donor 2, 37 °C",68.3%
same,stability in placental homogenate (degradation observed),"[1]; Donor 3, 37 °C",73.3%
same,"fraction unbound at 240 min, 2 µM",[2],0.09 ± 0.007
